Primary screen of a compound library

From ChEMBL document CHEMBL3988442, “University of Dundee, Small-Polar-MMV Screening Library” (2021).

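Assay on Mycobacterium tuberculosis, filed only as a heat shock assay from Cornell; the read-out is not stated. The concentration is filed as 10 mM, unlikely as a test dose, so the dose is not known. The record gives no direction; compounds that gave an IC50 in retests scored well above the rest, so higher reads as stronger inhibition. About 69,000 compounds were tested under these conditions; 1.4% (about 930) showed 50% or more at least once.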

The filed quantity is “Percent Effect” (%). The record does not define 0% and 100%; most values in the screen are far below 50% and negative numbers occur (in some assays of this library far below -100). Compounds were drawn at random from those tested, without regard to their results.

SMILES	percent effect
CN(CCc1ccc2c(c1)CCO2)C1CCS(=O)(=O)CC1	-14.43%
CCN(Cc1ccc(O)c(C(=O)O)c1)CC1CCCO1 (stereo unspecified)	-12.9%
[H][C@@]12OCCN(C(=O)c3occc3C)[C@@]1([H])CC[C@H]2OCC1CCOCC1	2.672%
CCN(CC)c1ncc2c(c1C(=O)O)CCN(C1CCOC1)C2.O=C(O)C(F)(F)F (stereo unspecified)	-17.47%
CCOc1ccc(C(=O)N(Cc2cnn(C)c2)C(C)C)cc1	12.52%
CCCOc1ccc(CNCCn2cccn2)cc1	-11.06%
O=C(O)c1csc(S(=O)(=O)Nc2cccc(OCC(F)(F)F)c2)c1	13.99%
CN(C)S(=O)(=O)N1CCC2(CC1)CC(OCC1CC1)CO2 (stereo unspecified)	6.408%
CC(=O)N[C@@H]1CN(C2CCN(c3cccc(Cl)c3)CC2)C[C@H]1C(C)C	-1.184%
CN1CCN2CCN(C(=O)c3cc4ncc(CCO)cn4n3)CC2C1 (stereo unspecified)	-8.82%
O=C(O)C(F)(F)F.O=C(O)C(F)(F)F.c1csc(CN2CCOCC3(CCN(C4CCOCC4)C3)C2)n1 (stereo unspecified)	-1.819%
CCOCC(=O)N1CCCn2c(CN3CCOCC3)nnc2C1	-7.563%
Cc1oncc1C(=O)N1CCC2(CCN(Cc3ccccn3)C2=O)C1 (stereo unspecified)	0.3334%
COc1ccc(SC(C)C(=O)N2CCC(C(N)=O)CC2)cc1 (stereo unspecified)	6.121%
CN(Cc1ccccc1F)C(C(N)=O)c1ccccc1 (stereo unspecified)	-18.93%
Cc1nccc(CNC(=O)NCCOc2ccc(F)c(F)c2)n1	-16.47%
COc1cccc2c1ccn2CCC(=O)NCCCC(=O)O	-11.61%
Cc1ccc(CCNC(=O)NCc2cccc(OC(F)F)c2)cn1	7.45%
COC(=O)C(O)C1CCN(CCc2ccccn2)CC1 (stereo unspecified)	-5.805%
CCn1c(Cn2cncn2)nnc1C1CCN(CCN)CC1	-18.37%
CNC(=O)CN1CCOCC12CCN(CCc1ccccc1)CC2.O=C(O)C(F)(F)F.O=C(O)C(F)(F)F	-61.57%
CCN(C(=O)CN1CCCC1Cc1ccccc1)c1ccccc1 (stereo unspecified)	12.1%
COc1ncc(C2CC(=O)NCc3nc4ccccn4c32)cn1 (stereo unspecified)	13.22%
CC(=O)N1CCC(N2CCN(Cc3ccc(C)o3)C(CCO)C2)CC1 (stereo unspecified)	-15.39%
CC(C)(C)c1nnc(CN2CCN(C(=O)N3CCCCC3)CC2)o1	-11.49%
CN1CC(c2ccccc2)CC12CCN(C(=O)c1cccnc1)CC2 (stereo unspecified)	13.8%
O=C(O)C(F)(F)F.[H][C@@]12CC(COCc3ccccn3)C[C@@]1([H])N(C(=O)c1ccno1)CCO2 (stereo partly specified)	1.135%
O=C(O)C(F)(F)F.O=C(O)C(F)(F)F.O=C(O)c1c(-c2cccnc2)ncc2c1CCN(Cc1ccccn1)C2	2.094%
CC(C)NC(=O)[C@@H]1C[C@H](N)CN1C(=O)c1cc2c([nH]c1=O)CCCC2	34.99%
COc1ccc(C(=O)NCc2ccco2)nn1	23.79%
Cc1nn2cc(CNc3nccc(CCC(F)(F)F)n3)nc2s1	-16.81%
Cc1ccc(CN2CCn3c(C(=O)N(C)C)cnc3C2)s1.O=C(O)C(F)(F)F	6.679%
CN(C)CCO[C@H]1C[C@@H](O)C12CCN(c1nccc3ccccc13)CC2	2.045%
O=C(O)C(F)(F)F.O=C(O)C(F)(F)F.[H][C@@]12CCC(=O)N(c3cnn(C)c3)[C@]1([H])CCN2Cc1cccc(C#N)c1	-15.21%
Cc1nc2ccc(C(=O)N3C[C@@H](O)[C@H](N4CCN(C)CC4)C3)cc2[nH]1	-10.49%
CC(C)N(C)Cc1cncc2c1CCN(C1CCOCC1)C2.Cl.Cl.Cl	21.63%
CCNC(=O)[C@@H]1C[C@@H](NC(=O)c2ccc(C#N)cc2)CN1CCCSC	-10.89%
[H][C@@]12CCCN1C[C@@H](CCSC)N(Cc1cn(CC)nc1C)C2	-8.348%
CC(C)(C)OC(=O)NC1CCCN(Cc2cccc(O)c2)C1 (stereo unspecified)	8.108%
CSc1ccc(NC(=O)NCc2nncn2C2CC2)cc1F	11.99%
CCCC1CCCN(C(=O)Nc2ccnc(C(=O)N(C)C)c2)CC1 (stereo unspecified)	-17.65%
COc1ncc(C)cc1NC(=O)COc1ccccc1F	-13.8%
COCCN(Cc1coc(-c2ccc(OC)cc2)n1)C1CC1	18.38%
CCc1cc(O)nc(C2CCCN(Cc3ccncc3)C2)n1 (stereo unspecified)	-16.12%
CCN1CC2(CC1=O)CN(Cc1ccsc1)CCN(C(=O)C(C)C)C2.O=C(O)C(F)(F)F (stereo unspecified)	-8.211%
CCn1nc(C)c2nc(C)nc(NCCCn3cccn3)c21	-3.879%
NS(=O)(=O)c1cnc(NCC2(c3ccccc3)CCC2)s1	2.154%
Cn1cc(Br)cc(NC(=O)Cc2cccs2)c1=O	5.1%
CCn1cc(CNCCNc2ncc(Cl)cc2Cl)cn1	-24.42%
O=C(O)C(F)(F)F.[H][C@]12CCC[C@@H](CNc3nccn3C)[C@@]1([H])CN(CC1CC1)C2	-49.63%
O=C1COc2c(cccc2C(=O)N2CCCC(n3cccn3)C2)N1 (stereo unspecified)	-15.93%
Cc1csc(NC(=O)CN(C)CC2CCCN2c2cccnn2)n1 (stereo unspecified)	29.38%
Cc1nc(N2CCCC2)nc2c1CCN(C(=O)C1CCCCC1)CC2	-24.59%
c1csc(-c2noc(CC3CCCO3)n2)c1 (stereo unspecified)	27.21%
COc1cccc(COCC(=O)N2CCCC(n3cncn3)C2)c1 (stereo unspecified)	-10.09%
O=C(Nc1ccccc1)C1=NOC2(CCCN(C(=O)C3CCCC3)C2)C1 (stereo unspecified)	-25.15%
O=C(Nc1cc(-c2ccncc2)no1)C1CC1	26.39%
O=C(O)C(F)(F)F.[H][C@@]12OCCC[C@]1([H])N(S(=O)(=O)CCC)C[C@@H]2N(C)Cc1ccco1	4.163%
Cc1nc(CN2CC(CO)Oc3ccccc32)sc1C (stereo unspecified)	-0.05638%

The last 5 entries again:

{"smiles": "COc1cccc(COCC(=O)N2CCCC(n3cncn3)C2)c1", "stereo": "stereo unspecified", "percent effect": -10.09}
{"smiles": "O=C(Nc1ccccc1)C1=NOC2(CCCN(C(=O)C3CCCC3)C2)C1", "stereo": "stereo unspecified", "percent effect": -25.15}
{"smiles": "O=C(Nc1cc(-c2ccncc2)no1)C1CC1", "percent effect": 26.39}
{"smiles": "O=C(O)C(F)(F)F.[H][C@@]12OCCC[C@]1([H])N(S(=O)(=O)CCC)C[C@@H]2N(C)Cc1ccco1", "percent effect": 4.163}
{"smiles": "Cc1nc(CN2CC(CO)Oc3ccccc32)sc1C", "stereo": "stereo unspecified", "percent effect": -0.05638}